## Screening data, single-dose tests

By UniProt entry, the sequences of proteins in these tests, tags left out. Residues count along the entry.
UniProt Q4DA54, 1-478: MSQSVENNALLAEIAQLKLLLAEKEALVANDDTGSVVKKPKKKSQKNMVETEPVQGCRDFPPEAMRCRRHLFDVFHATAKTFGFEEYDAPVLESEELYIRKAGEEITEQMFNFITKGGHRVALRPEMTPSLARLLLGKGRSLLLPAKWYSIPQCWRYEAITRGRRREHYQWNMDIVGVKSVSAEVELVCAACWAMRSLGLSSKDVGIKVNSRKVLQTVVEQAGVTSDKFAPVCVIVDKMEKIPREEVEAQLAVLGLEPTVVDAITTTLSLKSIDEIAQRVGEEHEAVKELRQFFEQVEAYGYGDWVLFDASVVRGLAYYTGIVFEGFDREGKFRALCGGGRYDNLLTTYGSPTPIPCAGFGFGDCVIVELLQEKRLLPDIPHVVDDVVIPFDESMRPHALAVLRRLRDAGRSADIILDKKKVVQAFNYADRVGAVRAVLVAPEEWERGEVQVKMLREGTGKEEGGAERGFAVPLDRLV

Data taken from ChEMBL document CHEMBL3988442, “University of Dundee, Small-Polar-MMV Screening Library” (2021).

Values are the deposited “Percent Effect”, in %.
How 0% and 100% were set is not recorded. Most values in the screen are low, and negative values occur.
The compounds are a random part of those screened.

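Enzyme assay of histidyl-tRNA synthetase; the read-out is not stated. Target: Histidine-tRNA ligase, Trypanosoma cruzi CL Brener (UniProt Q4DA54). Tested at 30 µM. Direction is inferred from retests: higher values go with stronger inhibition. Of about 69,000 compounds tested this way, about 31 (0.045%) reached 50% or more in at least one test.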

{"compound": "CO[C@H]1C[C@@H](O)C12CCN(CCOc1ccc(Cl)cc1)CC2", "effect": 8.911}
{"compound": "CN1CC(NC(=O)Nc2cnn(-c3ccccc3Cl)c2)CCC1=O", "stereo": "centres undefined", "effect": -5.263}
{"compound": "COCc1nn(CC2CC2)c2c1CN(Cc1cccs1)CC2", "effect": 6.796}
{"compound": "CCOc1ncccc1C(=O)Nc1c(C)cnn1CC1CC1", "effect": 4.124}
{"compound": "N#Cc1cccc(CN2CCCC2Cn2cccn2)c1", "stereo": "centres undefined", "effect": 8.187}
{"compound": "COc1ccccc1N1CCN(C(=O)CCn2ccnc2C)CC1(C)C", "effect": -10.97}
{"compound": "COc1ccc2c(C)c(C(=O)N3CCC(NC(C)=O)C3)oc2c1", "stereo": "centres undefined", "effect": 7.447}
{"compound": "O=C(c1cc[nH]n1)N(Cc1cccc(O)c1)CC1CC1", "effect": -22.22}
{"compound": "CC(C)OCCCNC(=O)CC1(Cn2cnnn2)CCCCC1", "effect": -2.439}
{"compound": "c1ccc(Cc2nnc(CN3CCn4c(nnc4C4CC4)C3)o2)cc1", "effect": 6.215}
{"compound": "Cc1cccc(CN2C[C@H](OCc3csc(C)n3)[C@H]3COC[C@H]32)n1", "effect": 7.018}
{"compound": "Cc1nc(C)c(C(=O)N2CCC(Nc3cccnc3)CC2)s1", "effect": 4.132}
{"compound": "CC(c1nc(C(C)(C)C)no1)N1CCN(C(=O)CN2CCOCC2)CC1", "stereo": "centres undefined", "effect": 4.523}
{"compound": "Cn1cc(C(=O)N[C@@H]2CN(Cc3ccc(F)cc3)[C@@H]3CCCO[C@@H]32)cn1", "effect": 4.902}
{"compound": "Cc1ccc(NC(=O)NCC2CCS(=O)(=O)C2)cc1Cl", "stereo": "centres undefined", "effect": 10.1}
{"compound": "CCN(Cc1cc(=O)n2cc(Br)ccc2n1)C1CC1", "effect": 3.409}
{"compound": "COC(=O)NCC(=O)N(C)Cc1csc(C)n1", "effect": -0.5952}
{"compound": "CC(CN1CCC2(CC1)N=C(N(C)C)NC2=O)c1ccccc1", "stereo": "centres undefined", "effect": 6.077}
{"compound": "COCc1cc(CNC(=O)c2cc(NC(C)=O)ccc2Cl)n[nH]1", "effect": 1.212}
{"compound": "CCSc1ncc(CN2CCN(c3nc(C)cnc3C)CC2)cn1", "effect": 13.1}
{"compound": "Cc1c(C(=O)NC2CCCC2)nnn1-c1ccccc1", "effect": -1.235}
{"compound": "O=c1[nH]cc(Nc2ccccc2)c(=O)[nH]1", "effect": -2.591}
{"compound": "CCCc1nc(C)c(C(=O)NCC2CCN(C3CC3)C2)s1", "stereo": "centres undefined", "effect": -3.226}
{"compound": "COc1ccccc1-c1cc(NC(=O)CCS(=O)(=O)C2CCCC2)[nH]n1", "effect": 7.097}
{"compound": "CC(C)Cc1noc(CN(C)C2CCS(=O)(=O)C2)n1", "stereo": "centres undefined", "effect": 9.877}
{"compound": "NC(=O)c1csc(N2CCN(Cc3cccc4nsnc34)CC2)n1", "effect": -0.6369}
{"compound": "Cc1nc(NCc2ccc(C)o2)cc(C(=O)N2CCOCC2)n1", "effect": 0.8368}
{"compound": "CC(=O)Nc1ccc(C(=O)NCCCn2cccc2)cc1", "effect": 8.434}
{"compound": "COc1ccccc1CN1C(=O)O[C@@H]2CN(S(=O)(=O)N(C)C)C[C@@H]21", "effect": 0}
{"compound": "CC(C)c1ccn(C2(C(=O)O)CCN(c3ccncc3F)CC2)n1", "effect": 1.604}
{"compound": "COCCn1cc(C(=O)N2CCCC2c2cc(C)on2)c2ccccc21", "stereo": "centres undefined", "effect": 7.143}
{"compound": "Cc1ccc(N2C[C@@H]3CN(C(=O)NC4CCCC4)C[C@]3(C(=O)O)C2)nn1", "effect": -8.642}
{"compound": "CCn1cc(CN2CCCN(C(=O)CCn3cc(C)cn3)CC2)cn1", "effect": 5.172}
{"compound": "COc1cccc(CN(C)C(=O)CCC(=O)c2ccc(Cl)cc2)c1OC", "effect": 4.132}
{"compound": "O=C(CC1CC1)NC[C@]12COC[C@H]1CN(c1ncccn1)C2", "effect": 3.226}
{"compound": "COc1ccc2c(c1)NC(C1CCNCC1)NS2(=O)=O", "stereo": "centres undefined", "effect": 6.202}
{"compound": "CCc1nccn1-c1cncc(C2CCCN2)n1", "stereo": "centres undefined", "effect": 6.977}
{"compound": "COc1ccc2nc(C3CC3)cc(C(=O)NCCc3nnc[nH]3)c2c1", "effect": 3.185}
{"compound": "Cc1noc(C)c1CS(=O)(=O)C(C)C(=O)N(C)c1ccccc1", "stereo": "centres undefined", "effect": 4.294}
{"compound": "Cc1nc(O)cc(C2CCCN(Cc3c(Cl)cncc3Cl)C2)n1", "stereo": "centres undefined", "effect": 4.972}

Once more, the final 5:

compound,effect
COc1ccc2c(c1)NC(C1CCNCC1)NS2(=O)=O (centres undefined),6.202
CCc1nccn1-c1cncc(C2CCCN2)n1 (centres undefined),6.977
COc1ccc2nc(C3CC3)cc(C(=O)NCCc3nnc[nH]3)c2c1,3.185
Cc1noc(C)c1CS(=O)(=O)C(C)C(=O)N(C)c1ccccc1 (centres undefined),4.294
Cc1nc(O)cc(C2CCCN(Cc3c(Cl)cncc3Cl)C2)n1 (centres undefined),4.972